In patent US20230112279A1, “DETERGENT COMPOSITION” (Conopco, Inc., d/b/a UNILEVER, priority 2020, published 2023):
Some results were stated once for a whole list of compounds, not compound by compound.

Sequences of proteins named here, by UniProt entry; tags and fusion partners are left off. Residues count along the entry.
UniProt O59952, 23-291 T253R/N255R: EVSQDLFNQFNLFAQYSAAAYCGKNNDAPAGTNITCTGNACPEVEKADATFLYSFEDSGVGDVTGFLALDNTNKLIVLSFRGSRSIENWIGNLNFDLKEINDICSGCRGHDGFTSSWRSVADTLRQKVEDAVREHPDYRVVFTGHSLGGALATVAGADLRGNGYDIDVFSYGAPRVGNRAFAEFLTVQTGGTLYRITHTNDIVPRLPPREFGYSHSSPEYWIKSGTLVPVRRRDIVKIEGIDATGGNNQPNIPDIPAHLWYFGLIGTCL

What was measured:
Lipex 100 L lipase [1] = target: T1, Lipex 100 L lipase (Thermomyces lanuginosus, UniProt O59952, N255R/T253R); assay: Biochemical determination of lipase activity (4-nitrophenyl ester hydrolysis, 405 nm) with Lipex 100 L; settings: saponin at fixed concentration of 10 μM; FIG. 3
T1 construct: purchased Novozymes
Experimental: (§1) Lipase activity was determined by a colorimetric method using 4-nitrophenyl-valerate (C5) and 4-nitrophenyl-dodecanoate (C12) as substrates. 4-nitrophenyl-dodecanoate (25 mg) or 4-nitrophenyl-valerate (18 mg) were dissolved in 10 mL solvent (methanol) to prepare 8 mM stock solutions. 1 mL of stock solution was added in 7 mL of acidified water (pH 4.5), to give a final concentration of 1 mM (the substrate). In 96-well microtitre plates the following reagents were added: 60 μL dH2O, 80 μL Tris-HCl buffer (pH 8.5, 50 mM), 20 μL of diluted enzyme solution, 20 μL of saponin 10× concentrated stock solution. 20 μL substrate was then added to start the reaction. For zero enzyme controls, enzyme solution was replaced with H2O. Following the addition of substrate, the release of product (4-nitrophenol) was monitored at 405 nm for 15 min at ambient temperature in a Varioskan plate reader.
The dose response of various lipases to saponins were tested in a biochemical assay. The concentration of lipase in these experiments was 10 μg/L. This level was chosen to ensure that substrate hydrolysis and resultant increase in absorbance measurements falls within the sensitivity of the spectrophotometer. […] In all cases, the lipase activity increased as the escin concentration reached above a threshold value, which varied according to the enzyme in question, but was in the region 0.01 (Resinase HT) to 0.10 μM (Lipex, 100 L, Lipex Evity and Novozyme 51032). […]
Biochemical assays measuring lipase activity were initially used in high-throughput microtitre plate format to enable different saponins at different doses to be screened as potential inhibitors of Lipex 100 L lipase (Novozymes). […] When using 10 ng/mL lipase ([…]) in this case (this level chosen to ensure that substrate hydrolysis and resultant increase in absorbance measurements falls within the sensitivity of the spectrophotometer) the typical saponin concentration required to inhibit the lipase was around 50-125 μM.

Lipex 100 L lipase [2] = target: T1, Lipex 100 L lipase; assay: Inhibition of Lipex 100 L at fixed dose of 500 μM (Example 7, C12 pNP ester); format: biochemical; settings: fixed dose of 500 μM, Lipex 100 L 10 ng/mL
Experimental: as §1
Various saponins were tested for their ability to inhibit Lipex 100 L lipase (10 ng/mL final). A buffer was used (50 mM Tris pH 8.5) and the experiments were carried out at 25° C. At a fixed dose of 500 μM a number of those tested were effective in lowering the lipase activity. The substrate used for testing as C12 pNP ester (0.1 mM final). These included glycosylated derivatives of oleanolic acid, avenacin, tea tree saponin as well as escin (table 4). […]

Substance | activation of Lipex 100 L (Lipex 100 L lipase [1]) | lipase inhibition (Lipex 100 L lipase [2])
Avenacin | greater than 15 fold | –
oleanolic acid-28-O-tetraglycoside [OA-28 x4Gly] | greater than 15 fold | –
Escin | greater than 15 fold | > 90%
